Data: the supplement of paper PMC10398353
Structures can show the parent of a compound that is named as a salt. ± gives the standard deviation of the averaged measurements. This is one part of the list. The data scatter; read single values as rough.

system: Salmonella enterica serovar Typhimurium ST313 D23580; assay: normalized bacterial growth (OD600 20 h minus 0 h, interquartile-mean normalized) (fraction of plate interquartile mean); higher = more bacterial growth (less inhibition); details: LPM (pH 5.8, low phosphate, low Mg2+), concentration: 10 µM, temperature: 37 °C

SMILES | normalized bacterial growth
CCN(CC)Cc1cc(Nc2ccnc3cc(Cl)ccc23)ccc1O [Amodiaquin dihydrochloride dihydrate] | 1.08
CCN(CC)Cc1cc(Nc2ccnc3cc(Cl)ccc23)ccc1O | 1.02
COc1ccccc1N1CCN(CCCNc2cc(=O)n(C)c(=O)n2C)CC1 [Urapidil hydrochloride] | 1.04
CN/C(=N\c1ccc(C2=NNC(=O)CC2C)cc1)NC#N (centres undefined) | 1.05
OC[C@H]1O[C@@](CO)(O[C@H]2O[C@H](CO)[C@@H](O)[C@H](O)[C@H]2O)[C@@H](O[C@H]2O[C@H](CO)[C@@H](O)[C@H](O)[C@H]2O)[C@@H]1O | 1.14
O=C(CCCN1CCC(O)(c2cccc(C(F)(F)F)c2)CC1)c1ccc(F)cc1 [Trifluperidol hydrochloride] | 0.908
COc1ccc(CCNC[C@@H](O)c2ccc(O)cc2)cc1OC [R(-)-Denopamine] | 1.09
COc1ccc2c(c1)O[C@H]1c3ccc(OC)cc3OC[C@@H]21 | 1.12
CC(C)NCC(O)c1cc(O)cc(O)c1 (centres undefined) [Metaproterenol hemisulfate] | 0.8
CC(C)NCC(O)c1cc(O)cc(O)c1 (centres undefined) | 1.13
O=[N+]([O-])c1cc2nc(O)c(O)nc2cc1[N+](=O)[O-] | 1.27
CC(=O)/C(C)=N/O ["2,3-Butanedione monoxime"] | 0.537
CCCCCCCCCCCCCCSCC(=O)O [Tetradecylthioacetic acid] | 1.1
CCCn1cnc2c1c(=O)n(CCCCC(C)=O)c(=O)n2C [Propentofylline] | 1.05
CC(C)(CO)Cc1cc(C(C)(C)C)c(O)c(C(C)(C)C)c1 | 0.343
O=C(O)CN(CCN(CC(=O)O)CC(=O)O)CCN(CC(=O)O)CC(=O)O [Diethylenetriaminepentaacetic acid] | 0.144
C#CCN(C)CCCOc1ccc(Cl)cc1Cl [Clorgyline hydrochloride] | 0.828
O=C(O)CCNC(=O)c1ccc(/N=N/c2ccc(O)c(C(=O)O)c2)cc1 [Balsalazide Sodium] | 1.1
C[n+]1ccccc1/C=N/O | 0.765
O=c1cc(-c2ccc(O)c(O[C@@H]3O[C@H](CO)[C@@H](O)[C@H](O)[C@H]3O)c2)oc2cc(O[C@@H]3O[C@H](CO)[C@@H](O)[C@H](O)[C@H]3O)cc(O)c12 | 1.32
CCC(C)n1ncn(-c2ccc(N3CCN(c4ccc(OCC5COC(Cn6cncn6)(c6ccc(Cl)cc6Cl)O5)cc4)CC3)cc2)c1=O (centres undefined) | 0.736
COc1ccc(/C=C/C(=O)c2cc(O)ccc2O)cc1 | 0.747
Cc1cccc(Nc2ccccc2C(=O)O)c1C | 1.06
C=CCSCC=C | 0.905
CN(CCOc1ccc(C[C@H](Nc2ccccc2C(=O)c2ccccc2)C(=O)O)cc1)c1ccccn1 | 1.14
O=C1c2ccccc2C(=O)C1(O)C1(O)C(=O)c2ccccc2C1=O | 1.2
CC(N)C(=O)OC(C)(C)Cc1ccc(Cl)cc1 (centres undefined) [Alaproclate hydrochloride] | 0.986

Looked up one by one from above:
SMILES | normalized bacterial growth
C=CCSCC=C | 0.905
O=C1c2ccccc2C(=O)C1(O)C1(O)C(=O)c2ccccc2C1=O | 1.2

Remaining list, next part.

SMILES | normalized bacterial growth
CC(N)C(=O)OC(C)(C)Cc1ccc(Cl)cc1 (centres undefined) | 0.927
C[C@H]1[C@H](OC(=O)CCC(=O)O)O[C@@H]2O[C@@]3(C)CC[C@H]4[C@H](C)CC[C@@H]1[C@@]24OO3 | 0.919
O=C1OC(CN2CCOCC2)CN1/N=C/c1ccc([N+](=O)[O-])o1 (centres undefined) | 0.825
O=C1OC(CN2CCOCC2)CN1/N=C/c1ccc([N+](=O)[O-])o1 (centres undefined) [Furaltadone hydrochloride] | 1.14
CC[n+]1c(-c2ccccc2)c2cc(N)ccc2c2ccc(N)cc21 | 0.931
C[n+]1ccccc1C=NO | 1.05
CNCCCN1c2ccccc2CCc2ccccc21 [Desipramine hydrochloride] | 0.763
O=C(O)[C@]1(O)C[C@@H](O)[C@@H](O)[C@H](O)C1 | 1.2
O=C1CCC(N2C(=O)c3ccccc3C2=O)C(=O)N1 (centres undefined) [()-Thalidomide] | 0.835
CC1(C)C[C@@H]2C(=O)CC[C@H]3O[C@]3(C)CC[C@H]21 | 0.956
CCN(CC)CCNC(=O)COc1ccc(OC)cc1 | 1.27
CCCCCCCCCCCCCCCCCC(=O)NCC(COP(=O)([O-])OCC[N+](C)(C)C)OCC (racemic) [rac-2-Ethoxy-3-octadecanamido-1-propylphosphocholine] | 1.36
CC(=O)OCC1=C(C(=O)O)N2C(=O)[C@@H](NC(=O)Cc3cccs3)[C@H]2SC1 [Cephalothin sodium] | 1.13
CCOc1ccc(NC(=O)CC(C)O)cc1 (centres undefined) | 1.22
COc1c(O)c2c(=O)cc(OC)c3c4c(OC)cc(=O)c5c(O)c(OC)c6c(c(c1CC(C)=C6C(C)=O)c23)c54 | 0.821
COc1c(O)cc2oc3cc(O)c(CC=C(C)C)c(O)c3c(=O)c2c1CC=C(C)C [alpha-MANGOSTIN] | 0.979
C=CCCCCCCCCC(=O)O | 1.12
COC(=O)C[C@H]1C(C)(C)[C@@H](OC(C)=O)[C@@H]2CC3C4CC(=O)O[C@@H](c5ccoc5)[C@]4(C)CCC3[C@@]1(C)C2=O (some centres undefined) | 0.846
CC1(C)S[C@@H]2[C@H](NC(=O)Cc3ccccc3)C(=O)N2[C@H]1C(=O)O | 1.05
CCCCc1nc(Cl)c(CO)n1Cc1ccc(-c2ccccc2-c2nnn[nH]2)cc1 | 0.998
CC(C)=CCOc1cc2oc(=O)ccc2cc1O | 1.11
O=C1C(SCCO)=C(SCCO)C(=O)c2ccccc21 | 0.903
COc1cc(/C=C/C(=O)CC(=O)/C=C/c2ccc(O)c(OC)c2)ccc1O | 0.626 ± 0.18
Cc1cc2nc3c(=O)[nH]c(=O)nc-3n(CC(O)C(O)C(O)COP(=O)(O)O)c2cc1C (centres undefined) | 1.17
CCCn1c(=O)c2[nH]c(-c3ccc(OCC(=O)Nc4ccc(C#N)cc4)cc3)nc2n(CCC)c1=O | 1.12
NCC[C@H](O)C(=O)N[C@@H]1C[C@H](N)[C@@H](O[C@H]2O[C@H](CN)[C@@H](O)[C@H](O)[C@H]2O)[C@H](O)[C@H]1O[C@H]1O[C@H](CO)[C@@H](O)[C@H](N)[C@H]1O [Amikacin hydrate] | 0.266
NCC[C@H](O)C(=O)N[C@@H]1C[C@H](N)[C@@H](O[C@H]2O[C@H](CN)[C@@H](O)[C@H](O)[C@H]2O)[C@H](O)[C@H]1O[C@H]1O[C@H](CO)[C@@H](O)[C@H](N)[C@H]1O | 1.01

Individual results from above.
Under normalized bacterial growth, O=C(O)[C@]1(O)C[C@@H](O)[C@@H](O)[C@H](O)C1 shows 1.2
Under normalized bacterial growth, O=C(O)CCNC(=O)c1ccc(/N=N/c2ccc(O)c(C(=O)O)c2)cc1 [Balsalazide Sodium] shows 1.1
